Measurements published in PMC6962096.

Chains of the proteins cited; added tags and fusions are not shown.
UniProt O00303: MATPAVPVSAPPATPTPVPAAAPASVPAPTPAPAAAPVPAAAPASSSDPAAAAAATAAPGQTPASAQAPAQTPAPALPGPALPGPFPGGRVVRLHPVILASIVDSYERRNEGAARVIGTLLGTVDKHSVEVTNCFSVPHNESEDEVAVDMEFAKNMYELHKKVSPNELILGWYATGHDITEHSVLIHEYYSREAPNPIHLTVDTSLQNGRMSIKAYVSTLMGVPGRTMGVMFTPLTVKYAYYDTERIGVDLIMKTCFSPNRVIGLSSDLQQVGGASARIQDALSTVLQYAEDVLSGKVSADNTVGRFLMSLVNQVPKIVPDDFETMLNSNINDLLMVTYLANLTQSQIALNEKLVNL
UniProt B5ME19: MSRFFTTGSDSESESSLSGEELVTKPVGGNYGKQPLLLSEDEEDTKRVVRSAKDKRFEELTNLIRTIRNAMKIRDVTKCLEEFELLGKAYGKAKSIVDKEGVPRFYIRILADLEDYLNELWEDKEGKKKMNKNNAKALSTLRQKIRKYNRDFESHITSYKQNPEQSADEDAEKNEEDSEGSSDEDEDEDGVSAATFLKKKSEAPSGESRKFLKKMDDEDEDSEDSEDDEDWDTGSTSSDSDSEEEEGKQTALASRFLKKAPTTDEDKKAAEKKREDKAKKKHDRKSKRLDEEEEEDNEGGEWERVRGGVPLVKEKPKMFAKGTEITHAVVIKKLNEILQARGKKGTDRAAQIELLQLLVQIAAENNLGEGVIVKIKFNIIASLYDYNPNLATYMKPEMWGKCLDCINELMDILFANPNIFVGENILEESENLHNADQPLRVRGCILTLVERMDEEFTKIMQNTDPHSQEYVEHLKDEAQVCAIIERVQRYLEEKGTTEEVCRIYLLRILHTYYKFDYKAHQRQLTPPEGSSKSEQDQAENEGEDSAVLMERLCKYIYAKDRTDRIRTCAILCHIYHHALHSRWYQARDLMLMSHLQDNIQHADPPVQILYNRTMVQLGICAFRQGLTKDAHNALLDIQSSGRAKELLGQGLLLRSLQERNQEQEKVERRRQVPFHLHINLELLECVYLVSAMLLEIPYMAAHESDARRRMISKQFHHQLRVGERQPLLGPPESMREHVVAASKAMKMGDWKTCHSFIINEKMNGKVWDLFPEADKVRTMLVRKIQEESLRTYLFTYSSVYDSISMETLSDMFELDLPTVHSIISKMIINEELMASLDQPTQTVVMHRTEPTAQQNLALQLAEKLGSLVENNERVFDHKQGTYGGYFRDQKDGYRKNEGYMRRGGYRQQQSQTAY
UniProt Q13263: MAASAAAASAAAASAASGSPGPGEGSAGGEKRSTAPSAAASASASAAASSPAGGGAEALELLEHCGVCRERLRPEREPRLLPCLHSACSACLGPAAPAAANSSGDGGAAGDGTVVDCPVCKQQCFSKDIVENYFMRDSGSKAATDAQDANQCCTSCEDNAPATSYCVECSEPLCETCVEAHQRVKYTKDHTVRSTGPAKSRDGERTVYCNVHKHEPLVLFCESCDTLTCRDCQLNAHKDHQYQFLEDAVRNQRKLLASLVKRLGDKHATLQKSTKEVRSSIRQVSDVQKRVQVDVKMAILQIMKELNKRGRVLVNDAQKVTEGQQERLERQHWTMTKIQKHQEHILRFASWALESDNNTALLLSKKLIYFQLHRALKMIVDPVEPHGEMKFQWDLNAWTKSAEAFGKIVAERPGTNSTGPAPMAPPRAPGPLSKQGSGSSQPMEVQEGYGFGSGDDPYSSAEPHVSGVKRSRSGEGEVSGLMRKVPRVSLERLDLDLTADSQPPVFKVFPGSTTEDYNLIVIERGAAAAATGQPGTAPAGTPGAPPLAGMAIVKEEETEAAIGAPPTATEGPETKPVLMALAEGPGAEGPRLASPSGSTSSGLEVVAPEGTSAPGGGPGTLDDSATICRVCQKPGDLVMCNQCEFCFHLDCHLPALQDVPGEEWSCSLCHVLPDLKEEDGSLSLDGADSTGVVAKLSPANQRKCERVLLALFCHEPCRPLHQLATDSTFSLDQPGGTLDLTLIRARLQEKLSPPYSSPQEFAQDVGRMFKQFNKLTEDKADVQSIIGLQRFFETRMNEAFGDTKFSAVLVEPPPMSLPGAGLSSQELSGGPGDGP
UniProt P78347: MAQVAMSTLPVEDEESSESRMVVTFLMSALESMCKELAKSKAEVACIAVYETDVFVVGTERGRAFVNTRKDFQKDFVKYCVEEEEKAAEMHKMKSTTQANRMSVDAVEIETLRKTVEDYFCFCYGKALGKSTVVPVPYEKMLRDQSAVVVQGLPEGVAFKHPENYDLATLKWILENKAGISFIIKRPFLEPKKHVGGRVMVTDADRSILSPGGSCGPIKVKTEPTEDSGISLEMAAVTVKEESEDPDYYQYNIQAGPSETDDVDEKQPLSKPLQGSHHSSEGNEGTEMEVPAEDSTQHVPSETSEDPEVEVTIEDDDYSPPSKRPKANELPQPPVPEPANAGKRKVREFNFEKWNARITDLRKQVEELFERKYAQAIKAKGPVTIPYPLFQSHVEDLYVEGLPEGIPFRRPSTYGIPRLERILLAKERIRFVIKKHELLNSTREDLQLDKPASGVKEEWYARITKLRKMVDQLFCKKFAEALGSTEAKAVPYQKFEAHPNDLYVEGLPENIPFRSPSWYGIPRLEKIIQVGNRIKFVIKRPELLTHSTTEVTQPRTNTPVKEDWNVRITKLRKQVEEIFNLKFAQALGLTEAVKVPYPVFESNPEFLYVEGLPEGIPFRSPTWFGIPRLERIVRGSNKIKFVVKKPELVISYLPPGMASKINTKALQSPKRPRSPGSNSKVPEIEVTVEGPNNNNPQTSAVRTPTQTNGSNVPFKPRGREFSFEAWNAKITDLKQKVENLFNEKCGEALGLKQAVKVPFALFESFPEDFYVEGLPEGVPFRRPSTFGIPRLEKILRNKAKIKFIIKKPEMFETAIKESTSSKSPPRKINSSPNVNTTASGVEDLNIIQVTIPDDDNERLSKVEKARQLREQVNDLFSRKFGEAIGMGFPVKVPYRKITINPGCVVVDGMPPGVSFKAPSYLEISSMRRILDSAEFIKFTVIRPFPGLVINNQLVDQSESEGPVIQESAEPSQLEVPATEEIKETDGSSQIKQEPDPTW
UniProt P40763: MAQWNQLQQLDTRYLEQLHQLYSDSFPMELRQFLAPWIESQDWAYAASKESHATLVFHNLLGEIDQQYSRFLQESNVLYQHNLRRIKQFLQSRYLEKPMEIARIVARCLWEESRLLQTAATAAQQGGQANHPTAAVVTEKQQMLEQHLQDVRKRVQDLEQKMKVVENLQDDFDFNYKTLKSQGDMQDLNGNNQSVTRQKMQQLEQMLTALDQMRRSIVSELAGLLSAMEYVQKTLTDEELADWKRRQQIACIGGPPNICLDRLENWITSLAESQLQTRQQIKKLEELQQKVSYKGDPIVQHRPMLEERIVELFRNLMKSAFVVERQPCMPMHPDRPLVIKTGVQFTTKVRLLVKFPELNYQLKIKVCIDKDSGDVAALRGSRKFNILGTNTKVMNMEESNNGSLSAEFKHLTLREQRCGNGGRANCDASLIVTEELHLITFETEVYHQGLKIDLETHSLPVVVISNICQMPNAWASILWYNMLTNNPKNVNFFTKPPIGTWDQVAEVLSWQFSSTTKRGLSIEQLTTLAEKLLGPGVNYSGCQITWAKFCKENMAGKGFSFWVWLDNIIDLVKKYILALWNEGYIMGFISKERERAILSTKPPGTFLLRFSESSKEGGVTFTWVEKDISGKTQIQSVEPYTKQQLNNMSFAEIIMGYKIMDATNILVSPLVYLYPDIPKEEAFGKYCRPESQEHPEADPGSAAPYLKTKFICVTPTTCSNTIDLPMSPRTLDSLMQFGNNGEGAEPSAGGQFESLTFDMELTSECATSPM
UniProt Q99613: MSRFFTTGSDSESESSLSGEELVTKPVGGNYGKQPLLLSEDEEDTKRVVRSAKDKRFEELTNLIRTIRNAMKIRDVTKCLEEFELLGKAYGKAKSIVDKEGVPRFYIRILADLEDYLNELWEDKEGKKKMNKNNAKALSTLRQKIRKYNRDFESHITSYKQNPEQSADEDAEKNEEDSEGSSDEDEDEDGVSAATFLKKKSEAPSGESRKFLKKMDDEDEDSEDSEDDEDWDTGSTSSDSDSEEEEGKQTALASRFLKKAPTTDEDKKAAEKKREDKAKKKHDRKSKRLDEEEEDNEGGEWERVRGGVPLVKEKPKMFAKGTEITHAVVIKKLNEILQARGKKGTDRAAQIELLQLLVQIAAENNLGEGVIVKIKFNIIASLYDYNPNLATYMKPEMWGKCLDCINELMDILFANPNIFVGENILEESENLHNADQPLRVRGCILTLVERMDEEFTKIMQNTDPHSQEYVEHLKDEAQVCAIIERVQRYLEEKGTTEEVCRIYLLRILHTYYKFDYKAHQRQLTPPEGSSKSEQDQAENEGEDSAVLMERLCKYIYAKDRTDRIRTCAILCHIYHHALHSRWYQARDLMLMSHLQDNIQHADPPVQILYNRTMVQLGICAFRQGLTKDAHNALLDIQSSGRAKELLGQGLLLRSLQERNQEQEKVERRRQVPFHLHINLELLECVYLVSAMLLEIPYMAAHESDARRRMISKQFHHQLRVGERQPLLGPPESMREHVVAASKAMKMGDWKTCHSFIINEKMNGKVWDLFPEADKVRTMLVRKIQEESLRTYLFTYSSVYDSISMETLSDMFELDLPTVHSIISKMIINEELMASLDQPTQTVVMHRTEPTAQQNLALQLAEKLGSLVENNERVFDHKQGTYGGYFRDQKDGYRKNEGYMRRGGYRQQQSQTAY
UniProt Q9NYF8: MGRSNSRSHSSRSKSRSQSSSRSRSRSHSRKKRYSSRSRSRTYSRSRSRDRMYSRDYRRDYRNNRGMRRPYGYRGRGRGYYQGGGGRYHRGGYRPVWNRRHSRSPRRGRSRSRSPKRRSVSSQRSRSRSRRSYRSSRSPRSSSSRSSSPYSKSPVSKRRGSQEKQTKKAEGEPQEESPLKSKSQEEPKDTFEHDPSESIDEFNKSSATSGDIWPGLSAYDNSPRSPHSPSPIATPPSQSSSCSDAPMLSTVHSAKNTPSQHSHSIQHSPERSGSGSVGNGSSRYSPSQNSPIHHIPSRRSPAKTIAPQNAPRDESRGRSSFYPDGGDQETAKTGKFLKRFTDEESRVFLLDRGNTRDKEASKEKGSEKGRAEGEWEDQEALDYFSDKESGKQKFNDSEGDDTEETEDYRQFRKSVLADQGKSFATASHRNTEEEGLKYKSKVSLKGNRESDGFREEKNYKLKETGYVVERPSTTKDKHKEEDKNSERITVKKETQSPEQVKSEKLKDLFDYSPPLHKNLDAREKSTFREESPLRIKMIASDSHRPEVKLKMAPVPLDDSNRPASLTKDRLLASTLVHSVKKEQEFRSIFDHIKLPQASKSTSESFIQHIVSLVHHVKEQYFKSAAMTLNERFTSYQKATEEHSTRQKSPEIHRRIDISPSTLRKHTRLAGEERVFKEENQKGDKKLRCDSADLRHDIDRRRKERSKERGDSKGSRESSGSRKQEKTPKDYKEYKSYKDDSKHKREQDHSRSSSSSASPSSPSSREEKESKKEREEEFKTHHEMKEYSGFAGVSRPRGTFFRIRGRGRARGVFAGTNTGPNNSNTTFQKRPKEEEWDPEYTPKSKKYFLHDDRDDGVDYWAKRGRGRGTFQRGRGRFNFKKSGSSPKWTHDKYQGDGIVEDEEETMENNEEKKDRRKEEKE
UniProt O15371: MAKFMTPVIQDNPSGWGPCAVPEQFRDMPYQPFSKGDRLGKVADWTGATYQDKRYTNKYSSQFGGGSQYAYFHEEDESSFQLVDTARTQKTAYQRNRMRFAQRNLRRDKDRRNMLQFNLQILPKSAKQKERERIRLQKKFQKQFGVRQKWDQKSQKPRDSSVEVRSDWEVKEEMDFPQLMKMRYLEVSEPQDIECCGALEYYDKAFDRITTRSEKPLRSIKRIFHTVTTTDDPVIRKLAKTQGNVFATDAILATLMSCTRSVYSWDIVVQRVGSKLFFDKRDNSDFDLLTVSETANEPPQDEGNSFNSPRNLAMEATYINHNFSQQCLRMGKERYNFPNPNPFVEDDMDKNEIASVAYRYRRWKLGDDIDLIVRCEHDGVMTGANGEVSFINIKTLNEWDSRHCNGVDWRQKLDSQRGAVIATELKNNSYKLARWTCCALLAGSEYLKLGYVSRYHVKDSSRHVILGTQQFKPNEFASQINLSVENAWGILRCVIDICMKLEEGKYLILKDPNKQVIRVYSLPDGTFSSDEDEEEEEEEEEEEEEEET

B1: RNA transcription, translation and transport factor (protein, UniProt Q9Y224 1-244)
chain: MFRRKLTALDYHNPAGFNCKDETEFRNFIVWLEDQKIRHYKIEDRGNLRNIHSSDWPKFFEKYLRDVNCPFKIQDRQEAIDWLLGLAVRLEYGDNAEKYKDLVPDNSKTADNATKNAEPLINLDVNNPDFKAGVMALANLLQIQRHDDYLVMLKAIRILVQERLTQDAVAKANQTKEGLPVALDKHILGFDTGDAVLNEAAQILRLLHIEELRELQTKINEAIVAVQAIIADPKTDHRLGKVGR
B2: Transcription factor A, mitochondrial (protein, UniProt Q00059 43-246)
chain: SSVLASCPKKPVSSYLRFSKEQLPIFKAQNPDAKTTELIRRIAQRWRELPDSKKKIYQDAYRAEWQVYKEEISRFKEQLTPSQIMSLEKEIMDKHLKRKAMTKKKELTLLGKPKRPRSAYNVYVAERFQEAKGDSPQEKLKTVKENWKNLSDSEKELYIQHAKEDETRYHNEMKSWEEQMIEVGRKDLLRRTIKKQRKYGAEEC
B3: Transcription initiation factor IIE subunit beta (protein, UniProt P29084 1-291)
chain: MDPSLLRERELFKKRALSTPVVEKRSASSESSSSSSKKKKTKVEHGGSSGSKQNSDHSNGSFNLKALSGSSGYKFGVLAKIVNYMKTRHQRGDTHPLTLDEILDETQHLDIGLKQKQWLMTEALVNNPKIEVIDGKYAFKPKYNVRDKKALLRLLDQHDQRGLGGILLEDIEEALPNSQKAVKALGDQILFVNRPDKKKILFFNDKSCQFSVDEEFQKLWRSVTVDSMDEEKIEEYLKRQGISSMQESGPKKVAPIQRRKKPASQKKRRFKTHNEHLAGVLKDYSDITSSK

These molecules were tested against Flag-M2-tagged EIF3F (eukaryotic translation initiation factor 3F) (human) (UniProt O00303) (assay: affinity purification with mass spectrometry; FLAG-EIF3F from EIF3F-A549 lysate held on Anti-Flag M2 magnetic beads; 50 mM Tris HCl pH 7.4, 150 mM NaCl, 1 mM EDTA, 1% Triton X-100; overnight at 4 °C; eluted with sample buffer; partners identified by proteomic analysis).

binding, binds:
EIF3CL (from UniProt B5ME19 1-914)
Transcription intermediary factor 1-beta (from UniProt Q13263 1-835)
General transcription factor II-I (from UniProt P78347 1-998)
Signal transducer and activator of transcription 3 (from UniProt P40763 1-770)
EIF3C (from UniProt Q99613 1-913)
Bcl-2-associated transcription factor 1 (from UniProt Q9NYF8 1-920)
EIF3D (from UniProt O15371 1-548)
B1
B2
B3

Results are given in words; binding and its absence hold for the method and conditions named. In cells and extracts the contact can be indirect. Here binding means that the protein was enriched with, or labelled near, the bait; the list need not be complete.
